# US8450090B2, “Compositions and methods for promoting fatty acid production in plants” (The Regents of the University of Colorado, a body corporate, priority 2009, dated 2013)
# At least one compound was matched to its structure with a doubt left.
# What was measured:
# Schizochytrium [1] = experiment: Lysosensor staining with flow cytometry for fatty acid accumulation; assay type: cell-based; details: treated versus untreated Schizochytrium, FIG. 1
# Schizochytrium [2] = experiment: Microscopy with Lysosensor dye and Oil Red O staining for fat accumulation; assay type: cell-based; details: treated versus untreated Schizochytrium, photographs, FIG. 5
compound,measurement,setting,value
"NC(=O)C(=O)O [Oxamate, oxamate]","fatty acid accumulation or storage (Lysosensor fluorescence, Fl1)",Schizochytrium [1],accumulates or stores more fatty acids
same,fat accumulation seen by Lysosensor dye and Oil Red O staining,Schizochytrium [2],dramatically increased fat accumulation
